Results are given in words; binding and its absence hold for the method and conditions named. In cells and extracts the contact can be indirect.
Key:
[1] = molecular target: peptidyl-prolyl cis/trans isomerase NIMA-interacting 1 (Pin1) (human (endogenous in HEK293T)) (UniProt Q13526); assay: co-IP; endogenous Pin1 immunoprecipitated with anti-Pin1 antibody (anti-HA as control) from pre-cleared HEK293T lysate in RIPA buffer, Protein A/G magnetic beads, overnight at 4°C, with or without 10 μg/mL RNaseA; bound proteins detected by western blot
[2] = molecular target: peptidyl-prolyl cis/trans isomerase NIMA-interacting 1 (Pin1) (human (endogenous in HEK293T)), Q13526; assay: as above; settings: remark: other sources report otherwise

Protein sequences, listed by entry. Tags and fused reporters are not part of them.
UniProt Q13526: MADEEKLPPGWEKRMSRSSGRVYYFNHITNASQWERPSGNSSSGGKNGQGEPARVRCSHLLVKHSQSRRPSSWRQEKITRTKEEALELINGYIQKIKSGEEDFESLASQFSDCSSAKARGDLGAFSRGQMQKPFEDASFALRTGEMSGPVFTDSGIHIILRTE

Row | binding [1] | binding [2] | Binder
1 | no binding |  | TIA1 (protein, UniProt P31483 1-386) MEDEMPKTLYVGNLSRDVTEALILQLFSQIGPCKNCKMIMDTAGNDPYCFVEFHEHRHAAAALAAMNGRKIMGKEVKVNWATTPSSQKKDTSSSTVVSTQRSQDHFHVFVGDLSPEITTEDIKAAFAPFGRISDARVVKDMATGKSKGYGFVSFFNKWDAENAIQQMGGQWLGGRQIRTNWATRKPPAPKSTYESNTKQLSYDEVVNQSSPSNCTVYCGGVTSGLTEQLMRQTFSPFGQIMEIRVFPDKGYSFVRFNSHESAAHAIVSVNGTTIEGHVVKCYWGKETLDMINPVQQQNQIGYPQPYGQWGQWYGNAQQIGQYMPNGWQVPAYGMYGQAWNQQGFNQTQSSAPWMGPNYGVQPPQGQNGSMLPNQPSGYRVAGYETQ
2 | no binding |  | TIAR (protein, UniProt Q01085 1-375) MMEDDGQPRTLYVGNLSRDVTEVLILQLFSQIGPCKSCKMITEHTSNDPYCFVEFYEHRDAAAALAAMNGRKILGKEVKVNWATTPSSQKKDTSNHFHVFVGDLSPEITTEDIKSAFAPFGKISDARVVKDMATGKSKGYGFVSFYNKLDAENAIVHMGGQWLGGRQIRTNWATRKPPAPKSTQENNTKQLRFEDVVNQSSPKNCTVYCGGIASGLTDQLMRQTFSPFGQIMEIRVFPEKGYSFVRFSTHESAAHAIVSVNGTTIEGHVVKCYWGKESPDMTKNFQQVDYSQWGQWSQVYGNPQQYGQYMANGWQVPPYGVYGQPWNQQGFGVDQSPSAAWMGGFGAQPPQGQAPPPVIPPPNQAGYGMASYQTQ
3 |  | no binding | K-homology splicing regulator protein (KSRP), Q92945 1-711 (protein) MSDYSTGGPPPGPPPPAGGGGGAGGAGGGPPPGPPGAGDRGGGGPGGGGPGGGSAGGPSQPPGGGGPGIRKDAFADAVQRARQIAAKIGGDAATTVNNSTPDFGFGGQKRQLEDGDQPESKKLASQGDSISSQLGPIHPPPRTSMTEEYRVPDGMVGLIIGRGGEQINKIQQDSGCKVQISPDSGGLPERSVSLTGAPESVQKAKMMLDDIVSRGRGGPPGQFHDNANGGQNGTVQEIMIPAGKAGLVIGKGGETIKQLQERAGVKMILIQDGSQNTNVDKPLRIIGDPYKVQQACEMVMDILRERDQGGFGDRNEYGSRIGGGIDVPVPRHSVGVVIGRSGEMIKKIQNDAGVRIQFKQDDGTGPEKIAHIMGPPDRCEHAARIINDLLQSLRSGPPGPPGGPGMPPGGRGRGRGQGNWGPPGGEMTFSIPTHKCGLVIGRGGENVKAINQQTGAFVEISRQLPPNGDPNFKLFIIRGSPQQIDHAKQLIEEKIEGPLCPVGPGPGGPGPAGPMGPFNPGPFNQGPPGAPPHAGGPPPHQYPPQGWGNTYPQWQPPAPHDPSKAAAAAADPNAAWAAYYSHYYQQPPGPVPGPAPAPAAPPAQGEPPQPPPTGQSDYTKAWEEYYKKIGQQPQQPGAPPQQDYTKAWEEYYKKQAQVATGGGPGAPPGSQPDYSAAWAEYYRQQAAYYGQTPGPGGPQPPPTQQGQQQAQ
